Measured values as given in US20100286082A1, “RIBOSWITCHES AND METHODS AND COMPOSITIONS FOR USE OF AND WITH RIBOSWITCHES” (Yale University, priority 2007, published 2010).
Some entries share one result that the patent states for a list of compounds.

Molecular target: 132 Sc RNA (SAM-IV riboswitch)
Assay: In-line probing of 132 Sc RNA (SAM-IV)
Assay type: binding, Streptomyces coelicolor
Text: DNA corresponding to the aptamer in the pEZ35 plasmid (above) was amplified by PCR with primers 5′-[…]

Structure (SMILES): Nc1ncnc2c1ncn2[C@@H]1O[C@H](CO)[C@@H](O)[C@H]1O [adenosine]
- Kd: > 1000 µM
